Reference: patent EP0889052B1, “Immunoreactive peptides from Epstein-Barr virus” (ORTHO DIAGNOSTIC SYSTEMS INC., priority 1992, dated 1994)
Where “and” joins values, the source holds several entries; their conditions need not be identical. Equal values may be shown once. Not every detail of the peptide structures is certain; ends, links or a residue may be inferred. Ends that are not written are not given here.

Legend:
[1] = system: infectious mononucleosis (IM) sera; assay: ELISA, scoring EBV IM sera with EA peptides; type: binding, human; conditions: for ELISA results (O.D.): EA positive EBV IM acute serum, peptide with or without extension; for % Positive / % Positive (number positive / number of IM sera tested): 32 IM sera, values >0.5 positive, IgG
[2] = system: CD8^+ T-cell subpopulation; assay: Proliferation assay with CD8+-enriched PBL plus irradiated autologous APC; type: cell-based, human
[3] = system: anti-EA-R and anti-EA-D sera; assay: ELISA, comparative reactivity of sera against EA-R and EA-D synthetic peptides; type: binding, human; conditions: individual sera, values greater than 0.2 significant
[4] = system: anti-EA antibody-positive sera; assay: ELISA, serological reactivity of sera with p17 synthetic peptides; type: binding, human; conditions: for anti-EA-positive sera reacted: 87 anti-EA antibody-positive sera (titer > 160), sera 1:10, 2 µg peptide per well
[5] = system: peripheral blood lymphocytes; assay: T-cell proliferation assay (3H-thymidine incorporation) of PBL with native p17 and p17 synthetic peptides; type: cell-based, human; conditions: for ^3H-thymidine Incorporation (cpm+S.D.): 1x10^5 lymphocytes
[6] = system: CD4^+ T-cell subpopulation; assay: Proliferation assay with CD4+-enriched PBL plus irradiated autologous APC; type: cell-based, human
[7] = system: Antibodies to peptides 50.10 (EA-D) and 17.1 (EA-R); assay: IgG ELISA on sequential sera of a patient with acute infectious mononucleosis; type: binding, human; conditions: sera tested at 1.20 dilution, (+) > 0.25
[8] = system: acute EBV infectious mononucleosis samples; assay: EA-D 50.1 synthetic peptide ELISA compared with immunofluorescence EA serology; type: binding, human; conditions: diluted 1:10, EA-D Western blot positive, IFA EA <10, OD greater than 0.2 positive
[9] = Serum donor: Anti-EA-D positive (Nasopharyngeal carcinoma)
[10] = Serum donor: Anti-EA-R-positive (Lymphomas)
[11] = Serum donor: Anti-EA-negative (VCA-negative)
[12] = Serum donors: Burkitt's lymphoma (African), EA titers >160
[13] = Serum donors: Lymphoma (total), EA titers >160
[14] = Serum donors: Nasopharyngeal carcinoma (North American), EA titers >160
[15] = Serum donors: Non-Hodgkin's lymphoma (North American), EA titers >160
[16] = 3.12 µg/ml, PBL from anti-VCA-positive, anti-EA-positive donor, 5 days
[17] = 12.5 µg/ml, PBL from anti-VCA-positive, anti-EA-positive donor, 5 days
[18] = 50 µg/ml, PBL from anti-VCA-positive, anti-EA-positive donor, 5 days
[19] = PBL from 3 anti-VCA-positive anti-EA-antibody-negative individuals (Figure 2)

CC[C@H](C)[C@H](NC(=O)[C@H](Cc1ccccc1)NC(=O)[C@H](CCCNC(=N)N)NC(=O)[C@H](CC(N)=O)NC(=O)[C@H](Cc1c[nH]c2ccccc12)NC(=O)[C@@H](NC(=O)[C@H](CCC(=O)O)NC(=O)[C@@H](NC(=O)[C@H](Cc1ccccc1)NC(=O)[C@@H](NC(=O)[C@H](CCC(=O)O)NC(=O)[C@H](CO)NC(=O)[C@H](CC(N)=O)NC(=O)[C@@H](N)CCC(N)=O)[C@@H](C)O)[C@@H](C)O)[C@@H](C)O)C(=O)N[C@H](C(=O)N[C@@H](Cc1c[nH]cn1)C(=O)N[C@H](C(=O)N[C@@H](CCC(=O)O)C(=O)N[C@@H](Cc1c[nH]cn1)C(=O)N[C@H](C(=O)N[C@@H](CC(=O)O)C(=O)O)C(C)C)[C@@H](C)O)[C@@H](C)O [Peptide 17.1e]
ELISA results (O.D.) ([1]; sample no. 2241): 1.277
ELISA results (O.D.) ([1]; sample no. 12498): 0.502
ELISA results (O.D.) ([1]; sample no. 12836): 1.257

CC[C@H](C)[C@H](NC(=O)[C@H](Cc1ccccc1)NC(=O)[C@H](CCCNC(=N)N)NC(=O)[C@H](CC(N)=O)NC(=O)[C@H](Cc1c[nH]c2ccccc12)NC(=O)[C@@H](NC(=O)[C@H](CCC(=O)O)NC(=O)[C@@H](NC(=O)[C@H](Cc1ccccc1)NC(=O)[C@@H](NC(=O)[C@@H](N)CCC(=O)O)[C@@H](C)O)[C@@H](C)O)[C@@H](C)O)C(=O)N[C@H](C(=O)N[C@@H](Cc1c[nH]cn1)C(=O)N[C@H](C(=O)N[C@@H](CCC(=O)O)C(=O)O)[C@@H](C)O)[C@@H](C)O [p17.1, ETFTETWNRFITHTE]
proliferation response ([2]; CD8^+ subpopulation from donor A): unresponsive
S.I. ([2]; CD8^+ subpopulation from donor B, highest antigen concentration tested (50 µg per ml)): greater than 3
ELISA (420 nm) [3, 9]: 0.019 and 0.014 and 0.041 and 0.025 and 0.265 and 0.029
ELISA (420 nm) [3, 10]: 1.793 and 1.218 and 1.056 and 1.104 and 0.682 and 1.354
ELISA (420 nm) [3, 11]: 0.071 and 0.027 and 0.024 and 0.041
anti-EA-positive sera reacted [4]: Approximately 60%
No. Positive/No. Tested [4, 12]: 20/28
No. Positive/No. Tested [4, 13]: 46/56
No. Positive/No. Tested (%) [4, 13]: 82%
No. Positive/No. Tested [4, 14]: 7/31
No. Positive/No. Tested (%) [4, 14]: 23%
No. Positive/No. Tested [4, 15]: 26/28
No. Positive/No. Tested (%) [4, 15]: 93%
No. Positive/No. Tested ([4]; Serum donors: Normal (VCA+EA-)): 0/30
No. Positive/No. Tested (%) ([4]; Serum donors: Normal (VCA+EA-)): 0%
No. Positive/No. Tested ([4]; Serum donors: Normal (VCA-EA-)): 0/23
No. Positive/No. Tested (%) ([4]; Serum donors: Normal (VCA-EA-)): 0%
% Positive [1]: 38%
% Positive (number positive / number of IM sera tested) [1]: 12/32
ELISA results (O.D.) ([1]; sample no. 2241): 0.282
ELISA results (O.D.) ([1]; sample no. 12498): 0.637
ELISA results (O.D.) ([1]; sample no. 12836): 0.692
S.I. [5, 16]: 1.8
^3H-thymidine Incorporation (cpm+S.D.) [5, 16]: 263 ± 57 cpm
S.I. [5, 17]: 4.7
^3H-thymidine Incorporation (cpm+S.D.) [5, 17]: 689 ± 88 cpm
S.I. [5, 18]: 10.8
^3H-thymidine Incorporation (cpm+S.D.) [5, 18]: 1584 ± 37 cpm
S.I. ([5]; PBL from 3 anti-VCA-positive anti-EA-antibody-negative individuals, highest concentrations (Figure 2)): 3.5-11
S.I. ([5]; PBL of anti-VCA-positive anti-EA-negative individual Fig. 2A, lower concentrations of antigen): 3
S.I. ([5]; PBL of anti-VCA-positive anti-EA-negative individual Fig. 2C, lower concentrations of antigen): 5
proliferation ([5]; unfractionated PBL of donors A and B, highest concentrations tested (100 µg per ml donor A, 50 µg per ml donor B)): proliferated
proliferation response ([6]; CD4 T-cell subpopulation from donor B): responded
S.I. ([6]; CD4^+ subpopulation from donor A, different concentrations): ≤ 5.3
IgG (O.D. reading) ([7]; 5-26-88, serum no. 9817): 0.158
IgG (O.D. reading) ([7]; 5-31-88, serum no. 9820): 0.108
IgG (O.D. reading) ([7]; 6-07-88, serum no. 9829): 0.135
IgG (O.D. reading) ([7]; 6-20-88, serum no. 9941): 0.169
IgG (O.D. reading) ([7]; 6-27-88, serum no. 9983): 0.645
IgG (O.D. reading) ([7]; 7-18-88, serum no. 10064): 0.842
IgG (O.D. reading) ([7]; 8-29-88, serum no. 10237): 0.260
IgG (O.D. reading) ([7]; 9-20-88, serum no. 1027): 0.23
IgG (O.D. reading) ([7]; 10-21-88, serum no. 10488): 0.217
IgG (O.D. reading) ([7]; 11-15-88, serum no. 10546): 0.193

CC[C@H](C)[C@H](NC(=O)[C@H](Cc1c[nH]c2ccccc12)NC(=O)CNC(=O)[C@H](CC(=O)O)NC(=O)[C@H](CC(C)C)NC(=O)CNC(=O)[C@H](CCC(=O)O)NC(=O)[C@H](CO)NC(=O)[C@H](C)NC(=O)[C@H](CCC(=O)O)NC(=O)[C@H](CC(C)C)NC(=O)[C@H](CCSC)NC(=O)CN)C(=O)N[C@@H](Cc1c[nH]cn1)C(=O)N[C@@H](CCC(N)=O)C(=O)O [p17.2, GMLEASEGLDGWIHQ]
anti-EA-positive sera reacted [4]: ~48%
No. Positive/No. Tested [4, 12]: 13/28
No. Positive/No. Tested (%) [4, 12]: 46%
No. Positive/No. Tested [4, 13]: 36/56
No. Positive/No. Tested (%) [4, 13]: 64%
No. Positive/No. Tested [4, 14]: 6/31
No. Positive/No. Tested (%) [4, 14]: 19%
No. Positive/No. Tested [4, 15]: 23/28
No. Positive/No. Tested (%) [4, 15]: 82%
No. Positive/No. Tested ([4]; Serum donors: Normal (VCA+EA-)): 0/30
No. Positive/No. Tested (%) ([4]; Serum donors: Normal (VCA+EA-)): 0%
No. Positive/No. Tested ([4]; Serum donors: Normal (VCA-EA-)): 0/23
No. Positive/No. Tested (%) ([4]; Serum donors: Normal (VCA-EA-)): 0%
S.I. [5, 16]: 1.1
^3H-thymidine Incorporation (cpm+S.D.) [5, 16]: 157 ± 23 cpm
S.I. [5, 17]: 1.9
^3H-thymidine Incorporation (cpm+S.D.) [5, 17]: 278 ± 58 cpm
S.I. [5, 18]: 1.9
^3H-thymidine Incorporation (cpm+S.D.) [5, 18]: 277 ± 175 cpm
proliferation [5, 19]: None of these PBL preparations proliferated

CC[C@H](C)[C@H](NC(=O)[C@H](CC(C)C)NC(=O)[C@@H](NC(=O)[C@H](CO)NC(=O)[C@H](Cc1c[nH]c2ccccc12)NC(=O)CNC(=O)CNC(=O)[C@H](CCC(N)=O)NC(=O)[C@H](CCC(N)=O)NC(=O)[C@@H](N)Cc1c[nH]cn1)[C@@H](C)O)C(=O)N[C@@H](CCC(=O)O)C(=O)N[C@@H](CC(=O)O)C(=O)N[C@@H](CC(N)=O)C(=O)N[C@H](C(=O)N1CCC[C@H]1C(=O)O)[C@@H](C)CC [p17.3, HQQGGWSTLIEDNIP]
anti-EA-positive sera reacted [4]: ~23%
No. Positive/No. Tested [4, 12]: 9/28
No. Positive/No. Tested (%) [4, 12]: 32%
No. Positive/No. Tested [4, 13]: 16/56
No. Positive/No. Tested (%) [4, 13]: 29%
No. Positive/No. Tested [4, 14]: 4/31
No. Positive/No. Tested (%) [4, 14]: 13%
No. Positive/No. Tested [4, 15]: 7/28
No. Positive/No. Tested (%) [4, 15]: 25%
No. Positive/No. Tested ([4]; Serum donors: Normal (VCA+EA-)): 0/30
No. Positive/No. Tested (%) ([4]; Serum donors: Normal (VCA+EA-)): 0%
No. Positive/No. Tested ([4]; Serum donors: Normal (VCA-EA-)): 0/23
No. Positive/No. Tested (%) ([4]; Serum donors: Normal (VCA-EA-)): 0%
S.I. [5, 16]: 1.3
^3H-thymidine Incorporation (cpm+S.D.) [5, 16]: 194 ± 65 cpm
S.I. [5, 17]: 0
^3H-thymidine Incorporation (cpm+S.D.) [5, 17]: 132 ± 3 cpm
S.I. [5, 18]: 1.3
^3H-thymidine Incorporation (cpm+S.D.) [5, 18]: 190 ± 47 cpm
proliferation [5, 19]: None of these PBL preparations proliferated

KQKHPKKVKQAFNPL [p50.10, KQKHPKKVKQAFNPL]
ELISA (420 nm) [3, 9]: 1.482 and 1.573 and >2.0 (2×) and 1.923 and 0.944
ELISA (420 nm) [3, 10]: 0.098 and 0.817 and 0.318 and 0.095 and 0.079 and 0.078
ELISA (420 nm) [3, 11]: 0.089 and 0.098 and 0.154 and 0.086
50.1 ELISA (OD reading) ([8]; sample 12502): 0.409
50.1 ELISA (OD reading) ([8]; sample 12840): 0.257
50.1 ELISA (OD reading) ([8]; sample 13769): 1.034
% Positive [1]: 75%
% Positive (number positive / number of IM sera tested) [1]: 24/32
ELISA results (O.D.) ([1]; sample no. 2241): 0.673
ELISA results (O.D.) ([1]; sample no. 12498): 0.342
ELISA results (O.D.) ([1]; sample no. 12836): 0.722
IgG (O.D. reading) ([7]; 5-26-88, serum no. 9817): 0.104
IgG (O.D. reading) ([7]; 5-31-88, serum no. 9820): 0.094
IgG (O.D. reading) ([7]; 6-07-88, serum no. 9829): 0.120
IgG (O.D. reading) ([7]; 6-20-88, serum no. 9941): 0.147
IgG (O.D. reading) ([7]; 6-27-88, serum no. 9983): 0.817
IgG (O.D. reading) ([7]; 7-18-88, serum no. 10064): 0.821
IgG (O.D. reading) ([7]; 8-29-88, serum no. 10237): 0.561
IgG (O.D. reading) ([7]; 9-20-88, serum no. 1027): 0.100
IgG (O.D. reading) ([7]; 10-21-88, serum no. 10488): 0.095
IgG (O.D. reading) ([7]; 11-15-88, serum no. 10546): 0.140
